{
  "source": "patent US7572574B2",
  "about": "“Method of measuring neprilysin activity” (Riken, priority 2002, dated 2009)",
  "molecular_target": "T1, neprilysin (Mus musculus, UniProt Q61391)",
  "T1 construct": "endogenous in cells; host or cells: mouse fetal cerebral cortex and hippocampus primary cultured nerve cells, paraformaldehyde-fixed",
  "T1 sequence (Q61391 1-750)": "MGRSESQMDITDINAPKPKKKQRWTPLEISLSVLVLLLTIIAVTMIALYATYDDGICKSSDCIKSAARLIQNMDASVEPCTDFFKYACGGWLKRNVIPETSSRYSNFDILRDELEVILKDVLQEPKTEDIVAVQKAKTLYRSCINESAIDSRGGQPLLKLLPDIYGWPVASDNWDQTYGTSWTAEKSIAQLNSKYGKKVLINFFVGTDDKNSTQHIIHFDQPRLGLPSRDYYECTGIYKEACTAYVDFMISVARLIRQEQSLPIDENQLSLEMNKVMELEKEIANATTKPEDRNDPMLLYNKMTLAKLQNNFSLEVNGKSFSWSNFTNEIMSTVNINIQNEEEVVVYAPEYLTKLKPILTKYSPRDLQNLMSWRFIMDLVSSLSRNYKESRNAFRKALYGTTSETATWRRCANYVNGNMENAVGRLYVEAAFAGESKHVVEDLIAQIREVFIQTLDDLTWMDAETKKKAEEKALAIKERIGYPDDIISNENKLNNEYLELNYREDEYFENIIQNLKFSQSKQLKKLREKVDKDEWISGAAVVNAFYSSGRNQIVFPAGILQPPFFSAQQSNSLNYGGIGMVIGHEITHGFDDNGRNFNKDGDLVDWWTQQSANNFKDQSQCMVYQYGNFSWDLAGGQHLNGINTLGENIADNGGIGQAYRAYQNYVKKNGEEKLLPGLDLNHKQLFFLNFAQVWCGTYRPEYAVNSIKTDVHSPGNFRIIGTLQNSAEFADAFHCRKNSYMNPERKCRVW",
  "test": "Neprilysin activity staining in mouse primary cultured nerve cells (fluorescent substrate, confocal microscopy)",
  "format": "cell-based",
  "details": "24 hours",
  "note": "For at least one compound, name, drawing or mass did not settle the structure.",
  "data": [
    {"smiles": "C[C@H](N)C(=O)NCC(=O)N[C@H]1CSSC[C@@H](C(=O)O)NC(=O)[C@H](CO)NC(=O)[C@H]([C@@H](C)O)NC(=O)[C@H](Cc2ccccc2)NC(=O)[C@H]([C@@H](C)O)NC(=O)[C@H](CCCCN)NC(=O)[C@H](Cc2c[nH]c3ccccc23)NC(=O)[C@H](Cc2ccccc2)NC(=O)[C@H](Cc2ccccc2)NC(=O)[C@H](CC(N)=O)NC(=O)[C@H](CCCCN)NC1=O", "note": "[somatostatin]", "values": [
      {"measurement": "neprilysin activity in the nerve cells compared to control added with no peptide", "setting": "mouse fetal cerebral cortex and hippocampus primary nerve cells, peptide final concentration 1 μM, stained images observed", "result": "markedly increased"},
      {"measurement": "increase of the enzyme activity of neprilysin (stained images quantified by image analysis software)", "setting": "somatostatin 1 μM, MetaVue quantification, FIG. 3", "result": "about 2.5 times"}
    ]}
  ]
}
